# In patent US20240277851A1, “siRNA DELIVERY VECTOR” (COUNCIL OF SCIENTIFIC & INDUSTRIAL RESEARCH, priority 2021, published 2024):
# For at least one compound, name, drawing or mass did not settle the structure.
# Test system: siRNA
# Experiment: Agarose gel electrophoresis retardation assay (siRNA binding)
# Conditions: ratios 1:1 to 7:1
# Experimental: Gel electrophoresis was performed with agarose gel (1.5% w/v) in tris-acetate-EDTA buffer (40 mM) with one drop of ethidium bromide added (concentration of EtBr stock solution: 0.625 mg/ml in H2O), at 100 V for 30 min. The siRNA lipoplexes were prepared by complexing siRNA with Mito-Esc, Mito-isoscopoletin and octyl TPP cation at described P^+/P^− ratios. The samples were incubated for 30 min at room temperature prior to addition into a well. The siRNA bands were visualized under UV illumination at 365 nm.
# Mito-Esc nanoparticle solutions were prepared at various concentrations according to the desired final P+:P− charge ratio. Twenty μL solution of the Mito-Esc/siRNA complex was prepared to maintain a constant amount of siRNA in each solution (1 μg in 10 μL), and varying the amount of Mito-Esc according to the P+:P− charge ratio. The prepared mixtures were gently vortexed for 5 min. and incubated for 30 min at room temperature for complex formation.
# The efficiency of Mito-Esc to bind siRNA was checked by agarose gel electrophoresis. Also, in order to assess the importance of hydrogen bonding in forming the stable siRNA complexes, Mito-isoscopoletin was synthesized by protecting the dihydroxy group with methyl group. Octyl TPP cation was used as a negative control.
structure (smiles),measurement,setting,value
"O=c1cc(CCCCCCCC[P+](c2ccccc2)(c2ccccc2)c2ccccc2)c2cc(O)c(O)cc2o1 [Mito-Esc, (8-(6,7-dihydroxy-2-oxo-2H-chromen-4-yl)octyl) triphenylphosphonium]",P+/P− charge ratios at which siRNA is bound (migration retarded),"earlier findings, FIG. 2D",4:1 to 7:1
same,P+/P− charge ratios at which siRNA is bound (migration retarded),"further experiments, FIG. 2E",4:1 to 7:1
